Reference: PubChem BioAssay AID1259254 (NCATS, 2017)
Screen: 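Finding genes that stop cells copying their DNA twice in one cycle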 (primary screen). Cell system: human HCT116 colorectal cancer cells. Reagents: single siRNA against human genes. Duration: 3 days. Detection: 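Imaged Hoechst DNA stain sorts each cell into a cycle phase by DNA amount; per plate, G2 fraction set to 0% for non-targeting and 100% for GMNN siRNA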. Direction: G2 robust z-score: higher = more G2 cells, more excess DNA replication. Rule for the call: 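Active siRNAs have a G2 robust z of 5 or more median absolute deviations over the median, which in these data means about 38% or higher of GMNN control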.
The whole screen tested about 59,000 reagents; below is a part drawn at random. Of all reagents, about 1,550 (2.6%) are marked active. 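G2 share is only a proxy for re-replication; each gene was hit by three separate siRNAs, and active genes were retested.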 Reagents against one gene are numbered here. Further read-outs or replicates are left out here. Reagent sequences are not shown. The record does not give: the amount of reagent.

LOC729275 (retired record) #1
- G2 robust z-score: 0.273
- activity call: inactive

LOC729275 (retired record) #2
- G2 robust z-score: 0.462
- activity call: inactive

LOC729275 (retired record) #3
- G2 robust z-score: -0.214
- activity call: inactive

TIPIN (TIMELESS interacting protein) #1
- G2 robust z-score: -0.436
- activity call: inactive

TIPIN (TIMELESS interacting protein) #2
- G2 robust z-score: -0.5
- activity call: inactive

TIPIN (TIMELESS interacting protein) #3
- G2 robust z-score: -0.711
- activity call: inactive

Continued, starting with the last 2 of the part before.
TIPIN (TIMELESS interacting protein) #2
- G2 robust z-score: -0.5
- activity call: inactive

TIPIN (TIMELESS interacting protein) #3
- G2 robust z-score: -0.711
- activity call: inactive

PRIMPOL (primase and DNA directed polymerase) #1
- G2 robust z-score: 2.38
- activity call: inactive

PRIMPOL (primase and DNA directed polymerase) #2
- G2 robust z-score: -0.791
- activity call: inactive

PRIMPOL (primase and DNA directed polymerase) #3
- G2 robust z-score: -0.271
- activity call: inactive

PGPEP1 (pyroglutamyl-peptidase I) #1
- G2 robust z-score: -0.743
- activity call: inactive

PGPEP1 (pyroglutamyl-peptidase I) #2
- G2 robust z-score: -0.699
- activity call: inactive

PGPEP1 (pyroglutamyl-peptidase I) #3
- G2 robust z-score: 0.351
- activity call: inactive

ECEL1 (endothelin converting enzyme like 1) #1
- G2 robust z-score: 1.54
- activity call: inactive

ECEL1 (endothelin converting enzyme like 1) #2
- G2 robust z-score: -0.595
- activity call: inactive

ECEL1 (endothelin converting enzyme like 1) #3
- G2 robust z-score: -0.618
- activity call: inactive

EGFL8 (EGF like domain multiple 8) #1
- G2 robust z-score: -0.426
- activity call: inactive

EGFL8 (EGF like domain multiple 8) #2
- G2 robust z-score: -0.746
- activity call: inactive

EGFL8 (EGF like domain multiple 8) #3
- G2 robust z-score: -1.11
- activity call: inactive
